Assay results taken from US11753440 (dated 2023).
*: point of attachment. Pbf = Cc1c(C)c(S(=O)(=O)*)c(C)c2c1OC(C)(C)C2; Boc = CC(C)(C)OC(=O)*

Test: peptide synthesis
Conditions: whole synthesis, UPLC

Substance: Boc-Y(Et)R(Pbf)AF-OH
- crude HPLC purity: 92%
